This note sets out measurements from paper PMC5391204.

By UniProt entry, the sequences of proteins in these tests, tags left out.
UniProt P61421: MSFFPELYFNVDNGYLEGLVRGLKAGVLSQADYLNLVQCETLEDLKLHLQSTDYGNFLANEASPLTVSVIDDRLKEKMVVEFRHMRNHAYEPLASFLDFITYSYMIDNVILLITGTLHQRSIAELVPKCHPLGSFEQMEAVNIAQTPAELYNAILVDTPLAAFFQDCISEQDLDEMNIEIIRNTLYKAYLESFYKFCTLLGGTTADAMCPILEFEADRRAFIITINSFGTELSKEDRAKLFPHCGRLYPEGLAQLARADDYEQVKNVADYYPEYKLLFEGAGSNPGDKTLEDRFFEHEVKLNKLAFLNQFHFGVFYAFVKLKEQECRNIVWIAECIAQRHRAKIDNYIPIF
UniProt Q9Y487: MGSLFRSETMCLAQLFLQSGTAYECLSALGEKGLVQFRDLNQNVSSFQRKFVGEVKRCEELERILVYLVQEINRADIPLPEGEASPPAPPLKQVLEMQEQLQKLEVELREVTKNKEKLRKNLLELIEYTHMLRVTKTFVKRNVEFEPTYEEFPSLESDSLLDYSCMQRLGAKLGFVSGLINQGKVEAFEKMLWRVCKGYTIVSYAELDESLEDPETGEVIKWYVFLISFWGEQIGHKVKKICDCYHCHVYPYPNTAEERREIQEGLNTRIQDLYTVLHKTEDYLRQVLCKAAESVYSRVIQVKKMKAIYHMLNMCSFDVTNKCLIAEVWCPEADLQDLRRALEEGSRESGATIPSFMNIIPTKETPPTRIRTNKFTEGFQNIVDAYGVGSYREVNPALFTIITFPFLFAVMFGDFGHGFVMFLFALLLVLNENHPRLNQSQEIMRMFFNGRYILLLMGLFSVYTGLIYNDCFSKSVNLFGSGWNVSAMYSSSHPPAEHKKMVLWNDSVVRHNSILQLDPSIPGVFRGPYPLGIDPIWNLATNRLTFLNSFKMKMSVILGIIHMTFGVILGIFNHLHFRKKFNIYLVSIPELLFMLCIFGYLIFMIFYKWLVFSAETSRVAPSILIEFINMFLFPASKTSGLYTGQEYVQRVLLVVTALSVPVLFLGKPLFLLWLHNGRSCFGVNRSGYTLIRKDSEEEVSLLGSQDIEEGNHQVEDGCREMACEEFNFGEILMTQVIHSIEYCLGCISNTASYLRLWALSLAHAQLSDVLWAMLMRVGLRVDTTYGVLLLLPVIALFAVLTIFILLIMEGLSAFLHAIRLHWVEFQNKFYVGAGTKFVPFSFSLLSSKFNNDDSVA

No constants are given. Whether binding was seen depends on the method and setting. Binding seen in cells or lysates may run through a third protein. These calls come from enrichment with a bait or labelling near it, and not all partners need be listed.

To fix the notation:
B1: CCDC115 (coiled-coil domain-containing protein 115) (protein, UniProt Q96NT0 1-180)
chain: MAALDLRAELDSLVLQLLGDLEELEGKRTVLNARVEEGWLSLAKARYAMGAKSVGPLQYASHMEPQVCLHASEAQEGLQKFKVVRAGVHAPEEVGPREAGLRRRKGPTKTPEPESSEAPQDPLNWFGILVPHSLRQAQASFRDGLQLAADIASLQNRIDWGRSQLRGLQEKLKQLEPGAA

The experiment concerns the target T1, TMEM199 (human (endogenous in HeLa)) (UniProt Q8N511).
T1 sequence: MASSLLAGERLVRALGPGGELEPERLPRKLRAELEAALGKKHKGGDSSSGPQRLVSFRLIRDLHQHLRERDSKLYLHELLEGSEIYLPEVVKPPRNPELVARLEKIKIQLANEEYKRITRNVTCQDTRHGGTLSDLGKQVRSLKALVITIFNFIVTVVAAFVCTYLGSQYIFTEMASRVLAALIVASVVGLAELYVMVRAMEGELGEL
Briefly: affinity purification with mass spectrometry; endogenous TMEM199 immunoprecipitated with the TMEM199 antibody on Dynabeads Protein G, 3 hr at 4°C, from wildtype HeLa cells lysed in 1% NP-40; TMEM199 KO HeLa cells as control; hits with unique peptide count >2.
Regarding ATP6V0D1 (from UniProt P61421 1-351), the binding result is “binds”.

As for ATP6V0A2 (from UniProt Q9Y487 1-856), the binding entry is reported as “binds”.

As to B1, the binding result is “binds”.
